# Source: PubChem BioAssay AID445 (National Center for Advancing Translational Sciences (NCATS), 2006)
# The list shows a part of the results. Shown are side measurements of this screen, not its main read-out; they come without a call. Most of these compounds were active or inconclusive in the main read-out, so they are no random draw. The note in brackets gives the kind of curve behind each potency; many fits are weak.
# Assay: IkB Signaling
# Conditions: ABC-DLBCL IkBa-CBG/CBR dual luciferase ratio (green luciferase fused to IkBa over red control in OCI-Ly3 lymphoma cells), 4 h
# Method in brief: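 Luminescence ratio of IκBα-fused green versus native red beetle luciferase in OCI-Ly3 cells, 4 h post-doxycycline with compound; red signal alone, scaled from basal (0%) to zero light (-100%), flagged nonspecific or cytotoxic effects.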
# [1] = measured here: control luc red channel unless noted
smiles,measurement,setting,value
O=C1NC(c2ccccc2)C(C(=O)c2cccs2)=C1O (stereo not given),AC50,[1],"12.6 µM [falling, partial curve]"
O=S(=O)(NCCc1csc2nc(-c3ccccc3)nn12)c1ccc(Oc2ccccc2)cc1,AC50,[1],"15.8 µM [falling, partial curve]"
Cc1ccc(Cl)cc1N1CCN(C(=O)c2noc3c2CCCC3)CC1,AC50,[1],"15.8 µM [falling, partial curve]"
COc1ccc(Cl)cc1NC(=O)Cn1nnc2sc(-c3ccccc3)cc2c1=O,AC50,[1],"10 µM [falling, partial curve]"
COC(=O)Cc1ccc(NC(=O)c2cccs2)cc1,AC50,[1],"20 µM [falling, partial curve]"
O=C1CN(C(=O)Cc2ccccc2)C(c2ccc(F)cc2)c2cc(Br)ccc2N1 (stereo not given),AC50,[1],"31.6 µM [falling, partial curve]"
Cc1cc(S(=O)(=O)Nc2ccc3oc4c(c3c2)CCCC4)ccc1Cl,AC50,[1],"20 µM [falling, partial curve]"
CCOc1ccc(CCNCc2c(C(=O)O)c(C)n(Cc3ccccc3F)c2C)cc1,AC50,[1],"12.6 µM [falling, partial curve]"
CC1CCN(C(=O)CN2C(=O)C(C)(C)Oc3ccc(C(=O)NC4CCCC4)cc32)CC1,AC50,[1],"3.16 µM [rising, partial curve] [measured here: IkB-luc green channel]"
CC1CCN(S(=O)(=O)c2ccc3c(c2)N(CC(=O)NCCCN2CCCC(C)C2)C(=O)CS3)CC1 (stereo not given),AC50,[1],"15.8 µM [falling, partial curve]"
O=C(/C=C\Nc1ccccn1)c1ccccc1,AC50,[1],"2 µM [falling, full curve]"
CN1C(=O)C2(OCC(COc3ccc(Cl)cc3)O2)c2ccccc21 (stereo not given),AC50,[1],"0.794 µM [falling, full curve]"
Cc1cccc(NC(=O)c2oc3ccc(S(=O)(=O)N4CCC5(CC4)OCCO5)cc3c2C)c1C,AC50,[1],"31.6 µM [falling, single point]"
CN(C)CCNC(=O)c1ccc(Cn2c(=O)c3cccn3c3cccnc32)cc1,AC50,[1],"1.26 µM [rising, full curve, poor fit]"
N/C(=N/O)c1nc(N2CCCC2)nc(N(c2ccccc2)c2ccccc2)n1,AC50,[1],"25.1 µM [falling, single point]"
CCOC(=O)C1CCN(S(=O)(=O)c2cn(C)c(=O)n(C)c2=O)CC1,AC50,[1],"7.94 µM [falling, full curve, poor fit]"
COc1ccc(-n2c(=O)c3c4c(sc3n3c(SC(C)C)nnc23)COC(C(C)C)C4)cc1 (stereo not given),AC50,[1],"10 µM [falling, partial curve]"
CCCc1cc(=O)[nH]c(SCc2nc(-c3ccccc3F)no2)n1,AC50,[1],"2.51 µM [rising, partial curve]"
CC(=O)c1cccc(Nc2ccc3cc(S(=O)(=O)N4CCCC4)ccc3n2)c1,AC50,[1],"6.31 µM [rising, full curve]"
CCCNC(=O)c1c(N)n(-c2cc(OC)cc(OC)c2)c2nc3ccccc3nc12,AC50,[1],"10 µM [falling, partial curve]"
COc1ccccc1-c1cc(C(F)(F)F)nc(S(=O)(=O)CCCC(=O)Nc2ccc(F)cc2F)n1,AC50,[1],"5.01 µM [falling, partial curve]"
O=C(Cn1c(=O)n(Cc2nc(-c3ccccc3)no2)c(=O)c2cc3c(cc21)OCO3)Nc1cccc(C(F)(F)F)c1,AC50,[1],"12.6 µM [falling, partial curve]"
COc1cccc(C2CC(=O)Nc3c2c(=O)n(C)c2nc4ccccc4n32)c1 (stereo not given),AC50,[1],"1.26 µM [rising, full curve, poor fit]"
Cc1cccc(C(=O)Nc2nc(-c3nnn(-c4cc(C)ccc4C)c3C)ns2)c1,AC50,[1],"7.94 µM [falling, partial curve]"
COc1cc2c(cc1C(F)(F)F)N(C(=O)Nc1cc(F)cc(-c3cccnc3)c1)CC2,AC50,[1],"3.16 µM [falling, full curve]"
COC(=O)c1ccccc1NC(=O)C1CCCN(S(=O)(=O)c2ccc(F)cc2)C1 (stereo not given),AC50,[1],"10 µM [falling, partial curve]"
Cc1cccc(CNC(=O)Cn2ccc3cc(S(=O)(=O)N4CCC(C)CC4)ccc32)c1,AC50,[1],"6.31 µM [falling, full curve]"
Cc1ccc(-c2nc3c4ccccc4n(CC(=O)N4CCN(c5ccc(F)cc5)CC4)c(=O)n3n2)cc1,AC50,[1],"5.01 µM [rising, partial curve]"
Cc1cc(C)cc(Nc2cc(C)nc3nc(-c4ccco4)nn23)c1,AC50,[1],"31.6 µM [falling, partial curve]"
Cc1cc2ncn(CCOc3ccccc3C#N)c2cc1C,AC50,[1],"25.1 µM [falling, partial curve]"
O=C(CSc1n[nH]c(-c2ccccc2O)n1)N1CCCc2ccccc21,AC50,measured here: IkB-luc green channel,"7.94 µM [falling, partial curve, poor fit]"
same,AC50,measured here: control luc red channel,"20 µM [falling, partial curve]"
Cc1cc(N2CCC(C(=O)NCCC(C)C)CC2)n2nc(C)c(-c3ccc(Cl)cc3)c2n1,AC50,[1],"2.51 µM [falling, partial curve]"
Cc1ccc(CN(C(=O)c2ccccc2[N+](=O)[O-])c2ccccn2)cc1,AC50,[1],"20 µM [falling, single point]"
COc1ccccc1NC(=O)CSc1oc(-c2ccc(F)cc2)nc1S(=O)(=O)c1ccc(Br)cc1,AC50,[1],"12.6 µM [falling, partial curve]"
CCOC(=O)C1Cn2c(nc3c(c2=O)C2(CCCC2)Cc2ccccc2-3)S1 (stereo not given),AC50,[1],"12.6 µM [falling, partial curve]"
CSc1cccc(NC(=O)CN2C(=O)COc3ccc(S(=O)(=O)N4CCC(C)CC4)cc32)c1,AC50,[1],"15.8 µM [falling, partial curve]"
O=C(CN1C(=O)CC(c2ccco2)Sc2ccccc21)Nc1ccccc1F (stereo not given),AC50,[1],"12.6 µM [falling, partial curve]"
Cc1ccccc1CNC(=O)c1ccc2[nH]c(C)c(C)c2c1,AC50,[1],"20 µM [falling, single point]"
Nc1nc2ccc(Cl)cc2c2nc(-c3ccco3)nn12,AC50,[1],"1.58 µM [rising, full curve]"

# At a glance, part of the list above.
smiles,measurement,setting,value
CN1C(=O)C2(OCC(COc3ccc(Cl)cc3)O2)c2ccccc21 (stereo not given),AC50,[1],"0.794 µM [falling, full curve]"
Cc1cccc(NC(=O)c2oc3ccc(S(=O)(=O)N4CCC5(CC4)OCCO5)cc3c2C)c1C,AC50,[1],"31.6 µM [falling, single point]"
